Here are results for one molecule from patent US20140328900A1.

This assay has as its target T1, G protein-coupled receptor RXFP1 (UniProt Q9HBX9).
T1 sequence (looked up): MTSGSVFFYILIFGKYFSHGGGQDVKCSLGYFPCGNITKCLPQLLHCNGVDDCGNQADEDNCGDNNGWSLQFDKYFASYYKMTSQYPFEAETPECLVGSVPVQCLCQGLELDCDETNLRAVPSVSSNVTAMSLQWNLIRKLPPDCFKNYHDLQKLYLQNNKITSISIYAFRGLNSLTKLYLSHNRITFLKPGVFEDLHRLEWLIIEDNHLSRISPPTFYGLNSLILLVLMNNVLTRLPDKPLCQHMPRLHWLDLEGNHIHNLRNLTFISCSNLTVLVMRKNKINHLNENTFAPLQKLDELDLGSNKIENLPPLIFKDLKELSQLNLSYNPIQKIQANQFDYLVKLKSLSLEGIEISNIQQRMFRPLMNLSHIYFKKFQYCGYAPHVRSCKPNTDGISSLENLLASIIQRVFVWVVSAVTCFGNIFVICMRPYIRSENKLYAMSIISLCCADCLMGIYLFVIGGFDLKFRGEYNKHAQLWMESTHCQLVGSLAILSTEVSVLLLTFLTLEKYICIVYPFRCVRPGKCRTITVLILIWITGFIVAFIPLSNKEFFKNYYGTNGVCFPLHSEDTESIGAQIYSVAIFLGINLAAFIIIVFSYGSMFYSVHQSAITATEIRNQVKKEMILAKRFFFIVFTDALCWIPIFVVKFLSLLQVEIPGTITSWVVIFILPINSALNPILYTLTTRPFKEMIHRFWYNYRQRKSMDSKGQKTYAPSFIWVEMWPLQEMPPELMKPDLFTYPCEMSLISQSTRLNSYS
Briefly: competition binding on HEK-293T cells expressing RXFP1; displacement of europium-labeled relaxin-2.

These are yes or no findings as the source states them, for the method shown. Some entries that bind do so weakly or less than the wild type.

B1: synthetic human relaxin-2 (ligand)
chain 1: ELYSALANKCCHVGCTKRSLARFC
chain 2: DSWMEEVIKLCGRELVRAQIAICGMSTWS
modifications: pyroglutamic acid (pGlu) at position 1 of the A chain
On to B1, for which the binding result is listed as “binds”.
